In PubChem BioAssay AID504648 (National Center for Advancing Translational Sciences (NCATS), 2011):
The whole screen tested about 390,000 compounds, of which about 610 (0.16%) were called active. This list was built around the results that the source calls inconclusive (neither active nor inactive); the mix of calls is not that of the screen. Calls come from the whole dose curve; as a rule, active = well fitted inhibition curve with a large enough effect; inconclusive = small, poorly fitted or top-dose-only effect, or effect the other way, or another doubt; inactive = no such curve, though single readings can be large or run the other way. A potency beside an inconclusive call is a rough fit, not a confirmed value.
% is set by controls: 0 for no effect and ±100 for the full control effect; potency is the fitted concentration of half-maximal effect.

Experiment: Nrf2 qHTS screen for inhibitors: counterscreen for cytotoxicity
Details: A549 ARE-Fluc cells, CellTiter-Fluor viability, 18-24 h; activity change, negative = cytotoxicity: at 46 µM (top of the series)
Method in brief: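 Cytotoxicity counterscreen: CellTiter-Fluor fluorescence was measured in A549 ARE_Fluc cells after 18-24 h of compound exposure in a concentration series. The subsequent BugLite luminescent read reports ARE-luciferase activity.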
With `CCCc1cc(N2CCN(c3cc(Cl)ccc3C)CC2)n2cnnc2n1` the Potency was inconclusive: 25.9 µM [falling, partial curve, poor fit]. In the case of `CCCN1C(=O)C(Cc2nc3ccccc3c(=O)n2CC)c2ccccc21` (configuration not stated), the Potency is reported as “inactive”. For `CC(C)S(=O)(=O)C1=NSC2=NC(=O)/C(=C\c3ccc(-c4cccc(C(=O)O)c4)o3)C(=N)N21`, the Potency was inconclusive: 9.2 µM [falling, partial curve]. For `CCCOc1ccc(N2CC(C(=O)Nc3cccc(Cl)c3Cl)CC2=O)cc1` (configuration not stated), the Potency was “inactive”. In the case of `CN1CCN(c2nc(N3CCN(CCO)CC3)nc3ccccc23)CC1`, the Potency is reported as inconclusive: 25.9 µM [falling, partial curve, poor fit]. With `CC(C)CN1CC(COCc2ccccc2)Oc2ccccc2S1(=O)=O` (configuration not stated) the Potency was inconclusive: 32.6 µM [activator, partial curve, poor fit]. With `COc1ccccc1OCC(=O)Nc1cc(S(=O)(=O)N2CCOCC2)ccc1N1CCCCC1` the Potency was “inactive”. For `Cc1ccc(NS(=O)(=O)c2cc(NC(=O)c3ccc4c(c3)NC(=O)CS4)ccc2Cl)c(C)c1`, the Potency was inconclusive: 13 µM [falling, partial curve]. With `COc1cccc(NS(=O)(=O)c2cc(-c3cnc(C4CC4)o3)ccc2C)c1` the Potency was inconclusive: 8.2 µM [falling, partial curve]. For `Cc1ccc(Cn2ncc3c(N4CCN(C)CC4)ncnc32)cc1`, the Potency was “inactive”. With `CCOc1ccc(OCC)c(NC(=O)CSc2nc3c(c(=O)n(C)c(=O)n3C)n2CC)c1` the activity change, negative = cytotoxicity was inactive: -1.46% [at 1.84 µM]. For `O=C(NNC(=S)NC(=O)c1ccco1)c1ccc(NC(=O)c2ccccc2)cc1`, the Potency was “inactive”. With `CCOc1ccccc1N1CC(c2nc3ccccc3n2CCCCOc2ccccc2)CC1=O` (configuration not stated) the Potency was inconclusive: 29.1 µM [falling, partial curve, poor fit]. With `COc1ccc(OC)c(C2CC(=O)Nc3ccc4ccccc4c32)c1` (configuration not stated) the Potency was inconclusive: 29.1 µM [falling, single point]. In the case of `CC(=O)c1c(O)cc(O)cc1O`, the Potency is reported as “inactive”. In the case of `CCOc1ccc2oc(-c3ccccc3)c(C(=O)N3CCN(CCO)CC3)c2c1`, the Potency is reported as “inactive”. For `Cc1ccc(C(=O)Nc2cccc(C(F)(F)F)c2)cc1Nc1ccccn1`, the Potency was inconclusive: 29.1 µM [falling, partial curve, poor fit]. With `COc1ccc(C(C(=O)NC2CCCCC2)N(C(=O)Cc2c[nH]c3ccccc23)c2ccccc2C)cc1OC` (configuration not stated) the Potency was inconclusive: 20.6 µM [falling, single point]. For `CCOc1cccc(C(=O)NC(=S)Nc2cccc(NC(=O)c3ccccc3Cl)c2)c1`, the Potency was “inactive”. With `CN(C)S(=O)(=O)c1ccc(-c2csc(N/N=C/c3ccc(O)cc3)n2)cc1` the Potency was inconclusive: 23.1 µM [falling, single point]. In the case of `COc1ccc(CN2CCN(C(=O)c3ccc(S(=O)(=O)N4CCCCCC4)cc3)CC2)cc1F`, the Potency is reported as “inactive”. With `CN(C)CCNC(=O)c1ccc(CS(=O)(=O)c2ccc(Br)cc2)o1` the Potency was inconclusive: 29.1 µM [activator, partial curve, poor fit]. For `O=C(NNC(=O)C12CC3CC(CC(C3)C1)C2)c1cccc(O)c1`, the Potency was “inactive”. In the case of `O=C(CN(Cc1ccc(F)cc1)C(=O)c1csnn1)NCc1ccc2c(c1)OCO2`, the Potency is reported as inconclusive: 6.51 µM [activator, single point]. For `CC(C)(C)C(=O)N1CCN(c2ccc([N+](=O)[O-])c(-n3nc(-c4ccccc4)c4ccccc4c3=O)c2)CC1`, the Potency was inconclusive: 23.1 µM [falling, partial curve, poor fit]. In the case of `Cc1ccc(-n2ncc3c2CCCC3NC(=O)c2ccoc2)cc1C` (configuration not stated), the Potency is reported as “inactive”. In the case of `N#C/C(=N\Nc1ccc(Cl)cc1)C(N)=S`, the Potency is reported as inconclusive: 16.4 µM [falling, partial curve, poor fit]. In the case of `CCOC(=O)c1cccc(NC(=O)c2cc3ccccc3o2)c1`, the Potency is reported as inconclusive: 7.31 µM [activator, partial curve, poor fit]. In the case of `COc1cc([N+](=O)[O-])c2nc(C=NNC(N)=S)ccc2c1`, the Potency is reported as inconclusive: 0.731 µM [activator, partial curve, poor fit]. With `O=C(C1=C[C@H](c2ccc(C(F)(F)F)cc2)C[C@H](OCc2ccc(CO)cc2)O1)N1CCN(Cc2ccc3c(c2)OCO3)CC1` the Potency was inconclusive: 32.6 µM [falling, partial curve, poor fit]. For `COc1ccc2nc(N=Nc3ccc(N(C)C)cc3)sc2c1`, the Potency was inconclusive: 5.17 µM [falling, partial curve]. With `CCCCCSc1nnc2c(n1)OC(c1ccc(C)s1)N(C(C)=O)c1ccccc1-2` (configuration not stated) the Potency was inconclusive: 29.1 µM [falling, single point]. For `CC1CCCN(S(=O)(=O)c2ccc(S(=O)(=O)NC(C)c3cccs3)cc2)C1` (configuration not stated), the Potency was inconclusive: 29.1 µM [falling, single point]. For `CC1(C)CC(NC(=O)c2ccc(-c3ccc([N+](=O)[O-])cc3)o2)CC(C)(C)N1`, the Potency was inconclusive: 18.4 µM [falling, single point]. For `CCS(=O)(=O)c1c(Nc2ccc(F)c(Cl)c2)sc(C(=O)c2ccccc2)c1N`, the Potency was inconclusive: 20.6 µM [falling, partial curve, poor fit]. With `COc1ccc([N+](=O)[O-])cc1Nc1c2ccccc2nc2ccccc12` the Potency was inconclusive: 20.6 µM [falling, single point]. With `O=C1c2[nH]nc(-c3ccccc3O)c2C(c2cccc(Cl)c2)N1CC1CCCO1` (configuration not stated) the Potency was “inactive”. With `O=C(Nc1ccccc1)Nc1cccc2nsnc12` the Potency was “inactive”. In the case of `CCOc1ccc(-c2nnc(Nc3ccc(OC)c(C(=O)N4CCCCC4)c3)c3ccccc23)cc1`, the Potency is reported as inconclusive: 23.1 µM [falling, single point]. For `O=[N+]([O-])c1ccc(N2CCN(c3ccccc3Cl)CC2)cn1`, the Potency was inconclusive: 23.1 µM [falling, partial curve, poor fit]. In the case of `O=S(=O)(c1ccccc1)N(CC(O)Cn1c2ccccc2c2ccccc21)c1ccccc1` (configuration not stated), the Potency is reported as inconclusive: 29.1 µM [falling, single point]. In the case of `Cc1cccc(-c2cc3nc4c(c(NCc5ccco5)n3n2)CCCC4)c1`, the Potency is reported as inconclusive: 29.1 µM [falling, single point]. With `O=C(Nc1ccc(Cl)cc1)C1C2C=CC3(O2)C1C(=O)N(CCCN1CCCCC1)C3C(=O)NC1CCCCC1` (configuration not stated) the Potency was “inactive”. In the case of `CC(C)Oc1cccc(C(=O)NC(=S)Nc2ccc(N3CCN(C)CC3)cc2)c1`, the Potency is reported as inconclusive: 18.4 µM [falling, single point]. For `COc1ccc(-c2nc(NC(=O)C3CC(=O)N(Cc4ccco4)C3)sc2C)cc1` (configuration not stated), the Potency was inconclusive: 16.4 µM [falling, partial curve, poor fit]. In the case of `COc1cc(/C=C2\SC(=O)N(c3ccc(Cl)cc3)C2=O)cc([N+](=O)[O-])c1O`, the Potency is reported as active: 16.4 µM. In the case of `CC(C)CC(=O)NC(NC(=S)Nc1sc2c(c1C#N)CCCC2)C(Cl)(Cl)Cl` (configuration not stated), the Potency is reported as inconclusive: 29.1 µM [falling, single point]. For `COC(=O)CN1C(=O)S/C(=C/c2cc(C)n(C)c2C)C1=O`, the Potency was inconclusive: 18.4 µM [falling, single point]. In the case of `CC(C)[C@H](NC(=O)c1ccccc1Cl)C(=O)Nc1nc(-c2ccccn2)cs1`, the Potency is reported as “inactive”. For `CC(CNC(=O)Cn1ccc2cc(S(=O)(=O)N3CCCCC3)ccc21)c1ccccc1` (configuration not stated), the Potency was “inactive”. In the case of `COc1cc(C2Nc3ccc4ncccc4c3C3=C2C(=O)CC(C)(C)C3)cc(OC)c1O` (configuration not stated), the Potency is reported as inconclusive: 35.5 µM [falling, partial curve, poor fit]. For `CCOc1cc(/C=C2\NC(=S)N(C)C2=O)ccc1OCc1ccc(C(=O)O)cc1`, the Potency was inconclusive: 23.1 µM [falling, single point]. With `O=C(NCc1ccccc1)c1nnc(Cc2cccc(F)c2)o1` the Potency was “inactive”. With `CN1Cc2sc(NC(=S)NC(=O)c3ccccc3)c(C#N)c2CC1(C)C` the Potency was inconclusive: 16.4 µM [falling, single point]. With `C=CCOc1ccc(C(c2c(O)nc(SC)[nH]c2=O)c2c(O)nc(SC)[nH]c2=O)cc1` the Potency was “inactive”. With `CCc1ccc(CNC(=O)Cn2nc(-c3ccccc3)ccc2=O)cc1` the Potency was “inactive”. In the case of `CC1CN(c2ncnc3c2cnn3-c2ccc(Cl)cc2)CC(C)O1` (configuration not stated), the Potency is reported as “inactive”. For `COc1cc(C2c3cc4c(cc3OC(NNC(N)=S)C2C)OCO4)cc(OC)c1OC` (configuration not stated), the Potency was “inactive”. In the case of `O=C(NCCC1=CCCCC1)c1cc2ccccc2oc1=O`, the Potency is reported as inconclusive: 4.61 µM [activator, single point]. In the case of `Cc1ccc(C(=O)c2c3ccc(C(F)(F)F)cc3[n+]([O-])n2CCCN)cc1`, the Potency is reported as inconclusive: 16.4 µM [falling, single point]. With `COc1ccc(/C=N/NC(=O)C(=O)/C=C2\NC3(CCCC3)Cc3ccccc32)cc1` the Potency was inconclusive: 18.4 µM [falling, partial curve, poor fit]. With `OCCCNc1c2ccccc2nc2ccccc12` the Potency was inconclusive: 14.6 µM [falling, partial curve]. With `COc1ccc(C2C3=C(CC(C)(C)CC3=O)Oc3ncn(Cc4ccco4)c(=N)c32)cc1` (configuration not stated) the Potency was inconclusive: 18.4 µM [falling, partial curve, poor fit]. With `CNc1nc(SCc2ccccc2Cl)nc2c1CCCC2` the Potency was inconclusive: 18.4 µM [falling, partial curve, poor fit]. For `CCSc1nnc(NC(=O)NCC(F)(F)F)s1`, the Potency was “inactive”. With `O=C(C=Cc1ccccc1)CC(c1ccccc1)N1CCOCC1` (configuration not stated) the Potency was inconclusive: 29.1 µM [falling, single point]. For `CCCCOc1ccc(C2c3c(-c4ccccc4O)n[nH]c3C(=O)N2Cc2ccncc2)cc1OC` (configuration not stated), the Potency was “inactive”.
